{
  "sequences": {"note": "Sequences of proteins named here, by UniProt entry; tags and fusion partners are left off. Residues count along the entry.", "UniProt P0ACJ8, 2-210": "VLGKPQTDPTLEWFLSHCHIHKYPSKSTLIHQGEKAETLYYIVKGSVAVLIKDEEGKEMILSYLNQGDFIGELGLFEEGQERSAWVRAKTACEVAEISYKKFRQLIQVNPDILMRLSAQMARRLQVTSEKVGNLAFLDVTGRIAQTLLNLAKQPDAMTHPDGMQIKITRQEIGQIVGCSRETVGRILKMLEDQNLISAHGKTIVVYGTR"},
  "source": "patent US20030049625",
  "molecular_target": "CAP (cAMP receptor protein) (Escherichia coli) (UniProt P0ACJ8)",
  "test": "binding assay",
  "details": "FRET, purified recombinant protein, letters built from the parent sequence and the stated change",
  "note": "A negative result means that nothing was seen under these conditions. The exact form of at least one protein or probe is not confirmed. Whether high values mean tight binding is not given here for every scale.",
  "data": [
    {"sequence": "AACGCAATAAATGTGA / TCTACTTCACATTTATTGCGTT / AGTAGATCACATTTTAGGCACC / GGTGCCTAAAATGTGA [CAP1/CAP4 + CAP2/CAP3]", "values": [
      {"measurement": "binding result", "setting": "[strand 2: T3 (N, modified T), strand 3: T3 (N, modified T)], no cAMP, no change in fluorescence, label: n = dT-fluorescein (CAP2), dT-dabcyl (CAP4)", "result": "no binding"}
    ]},
    {"sequence": "CTAGATCACATTTTAGGCACCAACGCAATAAATGTGAT / CTAGATCACATTTATTGCGTT / GGTGCCTAAAATGTGAT [CAP7/CAP8/CAP9]", "values": [
      {"measurement": "binding signal", "setting": "12 x Spacer 18 between bases 21 and 22 of CAP7 [strand 1: T2 (N, modified T), 12 x Spacer 18 between bases 21 and 22 (left out), strand 2: T2 (N, modified T)], 75 nM CAP, 50 nM DNA, 200 uM cAMP, 50 mM NaCl, complete within ~20 s, label: dT-fluorescein (CAP7), dT-dabcyl (CAP8)", "result": 70, "unit": "% quenching"}
    ]}
  ]
}
